For at least one compound, name, drawing or mass did not settle the structure.
System: CD133
Assay: Conditional expression of endogenous CD133 in engineered 293T cell clone carrying Y196 riboswitch, flow analysis
Format: cell-based, human
Details: for induction of CD133 expression: engineered 293T cell clone, drug for 2 days, flow analysis, FITC-anti CD133 antibody; for induction of CD133 protein: stable cell clone, drug at 2 μg/ml for 2 days, Image flow analysis (Amnis)

SMILES	induction of CD133 expression	induction of CD133 protein
C[C@H]1c2cccc(O)c2C(=O)C2=C(O)[C@]3(O)C(=O)C(C(N)=O)=C(O)[C@@H](N(C)C)[C@@H]3[C@@H](O)[C@@H]21 [Doxy, Doxycycline]	not	not
CN(C)[C@@H]1C(O)=C(C(N)=O)C(=O)[C@@]2(O)C(O)=C3C(=O)c4c(O)cccc4[C@@](C)(O)[C@H]3C[C@@H]12 [Tc, Tetracycline]	specifically induced	clearly specific

Reference: patent publication US20220290147A1, “SYSTEM FOR REGULATING GENE EXPRESSION” (Baylor College of Medicine, priority 2019, published 2022)
